Data as given in PubChem BioAssay AID1259281 (Sanger Institute, 2017).
The deposit covers 794 reagents; shown is a random part of them. Of all reagents, 22 (2.8%) are marked active. 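Calls rest on knock-down alone only; drug synergy scores play no part in them.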 Entries without a mark were called inactive. The numbers tell different reagents against one gene apart. Viability is capped at 1. Not all columns of the deposit are shown. Reagent sequences are not shown. Not given: the amount of reagent, the time to read-out.

- Assay: 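Screen kinases and frequently colorectal-mutated genes for lethal knock-downs and drug partners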 (primary screen)
- Cell system: human COLO678 colorectal cancer cell line
- Reagent: siRNA pool against human genes
- Conditions: anchor drugs at fixed doses: BYL719 1 µM, cetuximab 5 µg/ml or trametinib 10 nM; DMSO vehicle for the siRNA-alone arm
- Measured: 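Cell viability compared with non-targeting pool wells, averaged over replicates; knock-down-alone effect also as robust z-score; synergy scores set knock-down plus drug against expected joint effect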
- Reading the numbers: robust z-score, siRNA alone: higher = more viable cells; strongly negative means essential; viability, siRNA alone: higher = more surviving cells; synergy score with BYL719 and synergy score with trametinib: higher = stronger synergistic killing with drug
- Hit rule: 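Called essential (knock-down alone) if knock-down by itself drops cell number to a robust z-score under -3; all others no change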
- Calls: active = essential (knock-down alone); inactive = no change

| gene | pool no. | robust z-score, siRNA alone | viability, siRNA alone (fraction of control) | synergy score with BYL719 | synergy score with trametinib |
| --- | --- | --- | --- | --- | --- |
| MINK1 (misshapen like kinase 1) | 1 | 0.473 | 1 | -0.0919 | 0.0722 |
| NEK6 (NIMA related kinase 6) | 1 | 0.473 | 1 | -0.0919 | 0.00753 |
| NTRK3 (neurotrophic receptor tyrosine kinase 3) | 1 | 0.473 | 1 | 0.00965 | -0.112 |
| PDGFRL (platelet derived growth factor receptor like) | 1 | 0.473 | 1 | 0.0236 | -0.0323 |
| EPHB4 (EPH receptor B4) | 1 | -2.5 | 0.906 | -0.0519 | -0.0446 |
| UCK1 (uridine-cytidine kinase 1) | 1 | 0.473 | 1 | -0.0919 | 0.0175 |
| CDADC1 (cytidine and dCMP deaminase domain containing 1) | 1 | 0.473 | 1 | 0.0219 | 0.000753 |
| FN3KRP (fructosamine 3 kinase related protein) | 1 | 0.473 | 1 | -0.0168 | -0.0141 |
| PIK3R3 (phosphoinositide-3-kinase regulatory subunit 3) | 1 | 0.473 | 1 | -0.0919 | 0.0736 |
| NME7 (NME/NM23 family member 7) | 1 | 0.473 | 1 | -0.0919 | 0.00628 |
| ILK (integrin linked kinase) | 1 | 0.473 | 1 | 0.0185 | -0.04 |
| ILK (integrin linked kinase) | 2 | -1.25 | 0.945 | 0.00479 | 0.115 |
| EIF2AK4 (eukaryotic translation initiation factor 2 alpha kinase 4) | 1 | 0.473 | 1 | -0.0122 | 0.0739 |
| TNIK (TRAF2 and NCK interacting kinase) | 1 | 0.473 | 1 | -0.00195 | 0.0502 |
| CAMK2D (calcium/calmodulin dependent protein kinase II delta) | 1 | 0.473 | 1 | -0.0919 | -0.0797 |
| ACVRL1 (activin A receptor like type 1) | 1 | 0.473 | 1 | -0.0853 | -0.0028 |
| FES (FES proto-oncogene, tyrosine kinase) | 1 | -1.75 | 0.929 | -0.0319 | 0.00846 |
| NLK (nemo like kinase) | 1 | 0.473 | 1 | -0.0629 | 0.0754 |
| IP6K1 (inositol hexakisphosphate kinase 1) | 1 | 0.473 | 1 | -0.0919 | -0.0404 |
| GUK1 (guanylate kinase 1) | 1 | -0.479 | 0.97 | -0.0725 | -0.00259 |
| MUSK (muscle associated receptor tyrosine kinase) | 1 | -2.89 | 0.893 | -0.0452 | 0.0233 |
| DGKG (diacylglycerol kinase gamma) | 1 | 0.473 | 1 | -0.0281 | 0.0121 |
| PANK2 (pantothenate kinase 2) | 1 | 0.473 | 1 | 0.0447 | -0.0269 |
| MAST1 (microtubule associated serine/threonine kinase 1) | 1 | 0.473 | 1 | 0.0714 | 0.0368 |
| ZC3H11A (zinc finger CCCH-type containing 11A) | 1 | 0.473 | 1 | 0.0713 | -0.0326 |
| CDK1 (cyclin dependent kinase 1) | 1 | 0.473 | 1 | -0.0686 | -0.157 |
| STK26 (serine/threonine kinase 26) | 1 | -0.223 | 0.978 | -0.0606 | 0.0461 |
| CDKL5 (cyclin dependent kinase like 5) | 1 | 0.473 | 1 | -0.0919 | 0.0188 |
| EPHA6 (EPH receptor A6) | 1 | -5.51 (active) | 0.81 | -0.00542 | 0.0134 |
| STK16 (serine/threonine kinase 16) | 1 | 0.473 | 1 | -0.0664 | -0.00212 |
| DLG4 (discs large MAGUK scaffold protein 4) | 1 | -0.153 | 0.98 | -0.0334 | 0.102 |
| TESK2 (testis associated actin remodelling kinase 2) | 1 | 0.473 | 1 | 0.0308 | 0.0765 |
| PRP4K (pre-mRNA processing factor kinase PRP4K) | 1 | 0.0704 | 0.987 | 0.0402 | 0.0491 |
| PINK1 (PTEN induced kinase 1) | 1 | 0.441 | 0.999 | -0.0928 | 0.0368 |

A portion from the list above, as a working copy:
| gene | pool no. | robust z-score, siRNA alone | viability, siRNA alone (fraction of control) | synergy score with BYL719 | synergy score with trametinib |
| --- | --- | --- | --- | --- | --- |
| NLK (nemo like kinase) | 1 | 0.473 | 1 | -0.0629 | 0.0754 |
| IP6K1 (inositol hexakisphosphate kinase 1) | 1 | 0.473 | 1 | -0.0919 | -0.0404 |
| GUK1 (guanylate kinase 1) | 1 | -0.479 | 0.97 | -0.0725 | -0.00259 |
